# Reference: patent US9926355
# Chains of the proteins cited; added tags and fusions are not shown. Lines headed by an entry give the natural chain unless they say otherwise; changes in a name come on top.
# UniProt P11362: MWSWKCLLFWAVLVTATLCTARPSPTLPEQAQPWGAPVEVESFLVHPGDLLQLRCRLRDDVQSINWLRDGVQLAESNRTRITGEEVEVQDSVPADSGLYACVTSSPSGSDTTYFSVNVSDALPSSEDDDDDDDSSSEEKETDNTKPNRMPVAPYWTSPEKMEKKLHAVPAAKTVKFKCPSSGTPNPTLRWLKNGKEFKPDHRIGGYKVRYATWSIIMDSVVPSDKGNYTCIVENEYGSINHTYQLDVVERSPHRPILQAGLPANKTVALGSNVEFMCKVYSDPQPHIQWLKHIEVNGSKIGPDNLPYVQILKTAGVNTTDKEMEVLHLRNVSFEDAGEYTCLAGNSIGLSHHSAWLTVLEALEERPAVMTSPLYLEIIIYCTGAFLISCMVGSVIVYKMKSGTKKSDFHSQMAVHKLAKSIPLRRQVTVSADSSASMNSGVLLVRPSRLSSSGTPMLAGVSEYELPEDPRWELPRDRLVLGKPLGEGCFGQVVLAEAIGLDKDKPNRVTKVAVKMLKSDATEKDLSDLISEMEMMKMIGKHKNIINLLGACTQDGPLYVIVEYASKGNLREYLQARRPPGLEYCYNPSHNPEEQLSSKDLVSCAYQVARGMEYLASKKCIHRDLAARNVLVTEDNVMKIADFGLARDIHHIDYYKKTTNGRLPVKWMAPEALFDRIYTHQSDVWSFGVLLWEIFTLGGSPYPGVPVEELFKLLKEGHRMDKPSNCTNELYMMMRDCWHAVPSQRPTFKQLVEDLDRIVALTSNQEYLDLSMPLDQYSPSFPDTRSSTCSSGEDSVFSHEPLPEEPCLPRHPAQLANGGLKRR
# These are yes or no findings as the source states them, for the method shown. Some results given as binding are weak or reduced against the parent protein; the word gives no strength.
# B1: FGF2^ΔHBScore-FGF21^C-tail chimera (designed binder)
# chain: MAAGSITTLPALPEDGGSGAFPPGHFKDPKRLYCKNGGFFLRIHPDGRVDGVREKSDPHIKLQLQAEERGVVSIKGVSANRYLAMKEDGRLLASKSVTDECFFFERLESNNYNTYRSRKYTSWYVALDQTGQYVLGSKTGPGQKAILFLPMPGLPPALPEPPGILAPQPPDVGSSDPLSMVGPSQGRSPSYAS
# Molecular target: binary complex of FGFR1c ligand-binding domain with βKlotho ectodomain (murine; human) (UniProt P11362)
# Assay: SPR competition; competitor on the chip: immobilized FGF21
binder,measurement,value
B1,binding,binds
